In PMC7819943, “Rice protein-binding microarrays: a tool to detect cis-acting elements near promoter regions in rice”:
Some of the results follow.

The chains behind the UniProt entries cited, without tags or fusion partners.
UniProt Q0JBA9, entry or part of it: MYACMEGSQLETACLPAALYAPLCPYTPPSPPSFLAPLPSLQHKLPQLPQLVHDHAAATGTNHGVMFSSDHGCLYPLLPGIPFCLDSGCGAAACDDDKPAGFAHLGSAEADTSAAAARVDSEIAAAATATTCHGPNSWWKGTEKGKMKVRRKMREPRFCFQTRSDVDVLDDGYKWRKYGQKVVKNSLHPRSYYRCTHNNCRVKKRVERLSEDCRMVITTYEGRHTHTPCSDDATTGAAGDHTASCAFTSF

target: OsWRKY34 (Oryza sativa, UniProt Q0JBA9 1-250); assay: protein-binding microarray (RPBM); PBS, 2% BSA, 51.3 ng/ul salmon testes DNA, 50 uM zinc acetate, 200 nM TF, 25 C, 1 h; high values mean tight binding; details: protein: recombinant; tags: N-terminal polyhistidine and DsRed monomer fusion (pET32a); label: CyDye5-dUTP incorporated in the synthesized complementary strand; 3' TTTTT single-stranded linker to array surface; dsDNA, one strand shown
Procedure, shortened: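 Binding signal is reported as fluorescence intensity per feature (arbitrary units) from an Axon 4000B scanner. Incubation used 200 nM of each Ni–NTA-purified, N-terminally polyhistidine- and DsRed-fused transcription factor from E. coli BL21-CodonPlus on a double-stranded custom Agilent array for 1 h at 25 °C, with 50 µM zinc acetate in the buffer, followed by washing.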

Sequence	binding signal
TTTGTTTTCATTTCATGTTCATATTCATATTTTCTTGTCTCGGAGTCACCTAGTGCAG	8360 fluorescence intensity (a.u.)
TTTGTTGTCTCTTCATCCTACGTATTCTTTTTTTGCAATTCGGAGTCACCTAGTGCAG	8730 fluorescence intensity (a.u.)
ATCGTACTGGGGTTAGTGGGGTGGATTATGTTATCTCTACCGGAGTCACCTAGTGCAG	14800 fluorescence intensity (a.u.)
CCGCGTCCAACTTTGATCGTCCGTCTTATTTGAAACTTTTCGGAGTCACCTAGTGCAG	10700 fluorescence intensity (a.u.)
CGATTCCCAACCCTAACCGTCGTCACTGCCACCGCCAGCCCGGAGTCACCTAGTGCAG	8470 fluorescence intensity (a.u.)
CTTATAAATCCTTCACTTTTGCGTGCACTAACCTACCAAACGGAGTCACCTAGTGCAG	8750 fluorescence intensity (a.u.)
TACAGACCAAATCACCCGAATCGATCTCTGCCGTCCATCTCGGAGTCACCTAGTGCAG	9790 fluorescence intensity (a.u.)
CTTTGTCCCATTCGTTTTTTATTTTTGGCCCGCTTTGTACCGGAGTCACCTAGTGCAG	10100 fluorescence intensity (a.u.)
CATGCAAGACATGGTTTCCTTCTCTTTTCTCATTTTTTCGCGGAGTCACCTAGTGCAG	8580 fluorescence intensity (a.u.)
TTAGTACATTCAATTATTGCTGGAGTTCTAGTTTTTTTTTCGGAGTCACCTAGTGCAG	8480 fluorescence intensity (a.u.)
GGAGGTACACAAAGGGGTGTGGTGGTTTCATAAGTTTCAACGGAGTCACCTAGTGCAG	10400 fluorescence intensity (a.u.)
ACCCTCACCTCGTTCTCTATTTCTCCGTCCCAGCCACTGTCGGAGTCACCTAGTGCAG	12200 fluorescence intensity (a.u.)
CATCTCTCTCAACTCTCTGCAGCCCATTCACTGCACCAGTCGGAGTCACCTAGTGCAG	9360 fluorescence intensity (a.u.)
AGCTATTATTCATCCGAATCCGTTCCGTTTTCACCAATAACGGAGTCACCTAGTGCAG	9570 fluorescence intensity (a.u.)
ATAAGTGTTCTATCTCTCCTTTACGTTCCTTGATTCAATCCGGAGTCACCTAGTGCAG	8820 fluorescence intensity (a.u.)
GAGAAAAGGAGGGCAGAGATGGAGTGAGTGGCTTTGACTTCGGAGTCACCTAGTGCAG	8340 fluorescence intensity (a.u.)
TACTCTCTCTTGTGTCTGAATTGTGGACTTCCTCATTCAGCGGAGTCACCTAGTGCAG	8580 fluorescence intensity (a.u.)
CCTTCCGCCCGATCATTCCCAGCGCCGACTGGCTACTCTGCGGAGTCACCTAGTGCAG	10600 fluorescence intensity (a.u.)
CACTCGATCCCCATTCCTTCACATGATCTTGCACCCCGCTCGGAGTCACCTAGTGCAG	8180 fluorescence intensity (a.u.)
TTTTAACTTTGATCCAGTTCGCGTGTTCAATTCTCAACACCGGAGTCACCTAGTGCAG	8620 fluorescence intensity (a.u.)
TCGCTGTTGGGGAATGGGGAGTAGTAGTAGTAACTGTAGCCGGAGTCACCTAGTGCAG	9560 fluorescence intensity (a.u.)

Sequence	binding signal
TCAGCAACTCCAACCGATCCACTAATTACACGTCAGCTTGCGGAGTCACCTAGTGCAG	8130 fluorescence intensity (a.u.)
CACACCATCTCACCATCTGCCCTTTCTTAATGGCAAACAACGGAGTCACCTAGTGCAG	8280 fluorescence intensity (a.u.)
CTCTCTGGCAGCAACAGTTCACATGGCCTAGTTGACATTACGGAGTCACCTAGTGCAG	9080 fluorescence intensity (a.u.)
AATCCGGCGAGATTTCCGAAAAACTGCCCCGCACGCGCACCGGAGTCACCTAGTGCAG	8430 fluorescence intensity (a.u.)
TCGTTCCATTTCTATTATCTGCTTCTTGTTCAGCATCGATCGGAGTCACCTAGTGCAG	8890 fluorescence intensity (a.u.)
AGTCAACAGGGAGGGTAAAATAAGAAAGCAACAGCAAGAGCGGAGTCACCTAGTGCAG	9730 fluorescence intensity (a.u.)
CTCTCCCCGCGCGCGCTTTTCCAACTAGCCGTTGGTGCTCCGGAGTCACCTAGTGCAG	8510 fluorescence intensity (a.u.)
TTTTGTTTTGCTTTTGCTGTTTTCTTTCAGCCTTTGTGTACGGAGTCACCTAGTGCAG	10800 fluorescence intensity (a.u.)
TGCGTGGGTGCGAGGAATCGGGCTGGTTATTGATGGATCCCGGAGTCACCTAGTGCAG	8700 fluorescence intensity (a.u.)
TTATTTTTACGCGTCTTGTAGTTAAGTACAGTATATTTTTCGGAGTCACCTAGTGCAG	10500 fluorescence intensity (a.u.)
TCCCATTTACCACGTCAGCAAAAACCATTTCCCAAAACATCGGAGTCACCTAGTGCAG	9350 fluorescence intensity (a.u.)
GCCCGCCACCCGCCACCCACATCGCGCTCGCCGATCGCCGCGGAGTCACCTAGTGCAG	8540 fluorescence intensity (a.u.)
GAGTTGACTAGGATTCAAGCCAATTTTTATCCAACCAAAACGGAGTCACCTAGTGCAG	8330 fluorescence intensity (a.u.)
TCTGTATGGTCTACTTGTTTGATTGATTGATAATTTTACACGGAGTCACCTAGTGCAG	9240 fluorescence intensity (a.u.)
AAATCCGCTTCCAATTCGCGAAACTACACTAGTCGTAAGCCGGAGTCACCTAGTGCAG	8160 fluorescence intensity (a.u.)
TTTTGTAGTTAATGTATAGGTATCAGTTCCAAGGGGCTATCGGAGTCACCTAGTGCAG	9710 fluorescence intensity (a.u.)
TCTGCAGTGTGTTGAGTGCGTCGGGAGGGCTCAAGGATGGCGGAGTCACCTAGTGCAG	8810 fluorescence intensity (a.u.)
AGGTCAGGCTGAGATGCCATGATTCTTGCAGCACATAGAACGGAGTCACCTAGTGCAG	8170 fluorescence intensity (a.u.)
CCACAGCCACACTCTCTCCATTATCTAACTGCTCCTTTAACGGAGTCACCTAGTGCAG	8470 fluorescence intensity (a.u.)
GGGTTAAGGGTGGTTGTGCCTTATATTTTGTAATGGAGGACGGAGTCACCTAGTGCAG	8070 fluorescence intensity (a.u.)
CCCGGTTGACCACTACTTTTGCGATTTTTCATAAAAATAACGGAGTCACCTAGTGCAG	8260 fluorescence intensity (a.u.)

Some of the entries so far, as labelled records:
GCCCGCCACCCGCCACCCACATCGCGCTCGCCGATCGCCGCGGAGTCACCTAGTGCAG
  binding signal: 8540 fluorescence intensity (a.u.)
GAGTTGACTAGGATTCAAGCCAATTTTTATCCAACCAAAACGGAGTCACCTAGTGCAG
  binding signal: 8330 fluorescence intensity (a.u.)
